For part of these data: For at least one compound, name, drawing or mass did not settle the structure. Some compounds share one wording; it may come from a single statement. Some of these results come from one statement about several compounds together.
Columns and labels:
caspase 4 = experiment: Caspase 4 activity (AFC assay) in CLL cells treated in vitro; format: cell-based, human; details: CLL cells n=5; flavopiridol 2 μM (4 hours, washed), thapsigargin 1 μM, tunicamycin 3 μg/ml; 24 hours
Description: (§1) The presence of active caspase enzymes was determined by the AFC assay. Briefly, lysates containing approximately 3×10^6 cells were incubated with 50 μM LEVD-AFC (caspase 4 substrate) or LETD-AFC (caspase 8 substrate) from MP Biomedicals (Solon, Ohio) in 2× cytobuffer from BioVision (Exton, Pa.) containing 10 mM dithiothretiol (DTT). Caspase 4 activity was measured one hour after addition of substrate and caspase 8 activity was measured 30 minutes after addition of substrate. Release of free AFC was measured with a Beckman-Coulter DTX 880 multimode detector (Filters: excitation, 405/10 nm; emission, 535/25 nm). Caspase 4 inhibitor Z-YVAD-FMK was purchased from R&D Systems.

caspase 8 = experiment: Caspase 8 activity (AFC assay) in CLL cells treated in vitro; format: cell-based, human; details: CLL cells n=5; flavopiridol 2 μM (4 hours, washed), thapsigargin 1 μM, tunicamycin 3 μg/ml; 24 hours
Description: as §1

CLL cells = experiment: Cell viability by annexin V/PI flow cytometry in CLL cells; details: annexin/PI negative, CQ 0.5 μM, flavopiridol 4 hours then washed, CQ continuous 24 hours
Description: Percent of live cells was determined by staining with annexin V-fluorescein isothiocyanate and propidium iodide (PI). After exposure to agents, cells were washed with PBS and stained in 1× binding buffer (BD Biosciences, Franklin Lakes, N.J.). Cell viability was assessed by flow cytometry using a Beckman-Coulter Cytomics FC500 cytometer. Data were analyzed with the CXP Cytometer software package (Beckman-Coulter). A total of 10,000 cells were counted for each sample. The cells treated with flavopiridol were washed after 4 hours with PBS and re-suspended in regular growth medium (RPMI 1640) supplemented with 10% human serum and antibiotics for the remainder of the incubation time. […] For all the other conditions, cells were incubated with the respective drugs for 24 hours continuously.
CLL cells were suspended in buffer V (Amaxa kit, Lonza, Allendale, N.J.) and nucleofection was performed using program U016 (5 μg siRNA and 1×10^7 cells per cuvette). Scrambled siRNA and siRNAs to ATG5, ATG7 and ASK1 were purchased from Sigma-Aldrich. Cells were immediately suspended in warm, complete media supplemented with 10% human serum, and RNA was extracted after 36 hours. For CDK1 and CDK5, siRNAs were purchased from Applied Biosystems (Carlsbad, Calif.). Transfections were done using 5 nM siRNA per cuvette, and RNA was harvested at 48 hours.

Compound | increase of caspase 4 activity compared to vehicle or F-ara-A (caspase 4) | increase of caspase 8 activity compared to vehicle or F-ara-A (caspase 8) | effect of chloroquine addition on cell death caused by the agent (CLL cells)
tunicamycin | 5- to 10 fold | 5- to 10 fold | –
Nc1nc(F)nc2c1ncn2[C@@H]1O[C@H](CO)[C@@H](O)[C@@H]1O [F-ara-A, 9-β-D-arabinofuranosyl-2-fluoroadenine 5′-phosphate] | – | – | neither enhanced nor diminished
